Measured values taken from PubChem BioAssay AID540276 (National Center for Advancing Translational Sciences (NCATS), 2011).
Screen size: about 300,000 compounds; about 5,400 (1.8%) were called active. The inconclusive results got no clear call from the source; some entries with a clear call stand among them for comparison. Calls come from the whole dose curve; tested in HEK293 cells. Potencies of inconclusive entries are doubtful fits and often do not repeat.

Test: qHTS for inhibitors of binding or entry into cells for Marburg Virus
Details: Marburg virus pseudotyped entry inhibition, cell reporter; activity change, negative = inhibition: at 37.8 µM (top of the series) unless noted
% is set by controls: 0 for no effect and ±100 for the full control effect; potency is the fitted concentration of half-maximal effect.

**Q.** With `Cc1ccc(NC(=O)c2ccc3snnc3c2)cc1C` as the molecule, how does the Potency read?
**A.** inactive

**Q.** Which “activity change, negative = inhibition” value does the source give for `Nc1nnnn1/N=C/c1cccc(O)c1` here?
**A.** inactive: 4.78%

**Q.** Which Potency does the source give for `CO/N=C(\Cn1ncc(N2CCCC2)c(Cl)c1=O)c1ccc(Cl)cc1` here?
**A.** inconclusive: 25.1 µM [inhibitor, single point]

**Q.** For `CCCc1c(C(=O)Nc2ccc(F)cc2C)cnn1-c1ccccc1`, which “activity change, negative = inhibition” value is on record?
**A.** inactive: 1.01%

**Q.** For `C=CCNC(=O)/C(=C\C=C\c1ccccc1)NC(=O)c1ccccc1Cl`, which Potency is on record?
**A.** inconclusive: 3.55 µM [inhibitor, full curve, poor fit]

**Q.** With `COc1ccc(CC(=O)Nc2sc3c(c2C(N)=O)CCCC3)cc1` as the molecule, how does the “activity change, negative = inhibition” value read?
**A.** inactive: -2.51% [at 46.1 µM]

**Q.** With `CC(=NCC1CCNCC1)C1=C(O)CC(C)(C)CC1=O` as the molecule, how does the “activity change, negative = inhibition” value read?
**A.** inactive: 0.413%

**Q.** For `C(=N\N(c1ccccc1)c1ccccc1)/c1ccccn1`, which Potency is on record?
**A.** inconclusive: 35.5 µM [inhibitor, single point]

**Q.** Which Potency does the source give for `O=C(O)CCc1ccc(-c2ccccc2)n1-c1ccc(C(=O)O)cc1` here?
**A.** inactive

**Q.** With `COCCNC(=O)Cn1c(=O)n(CCC(=O)NCCc2ccccc2)c(=O)c2ccccc21` as the molecule, how does the Potency read?
**A.** inconclusive: 12.6 µM [activator, partial curve, poor fit]

**Q.** Which Potency does the source give for `c1ccc(-c2cc3c(NCC4COc5ccccc5O4)ncnc3s2)cc1` (stereo not drawn) here?
**A.** inconclusive: 12.6 µM [inhibitor, single point]

**Q.** With `CCCC1=Nc2cc(C(=O)NCCN3CCOCC3)ccc2Sc2ccccc21` as the molecule, how does the Potency read?
**A.** inconclusive: 3.16 µM [inhibitor, single point]

**Q.** For `Cc1cccc(NC(=S)N2CCCCCC2)c1`, which Potency is on record?
**A.** inconclusive: 11.2 µM [activator, partial curve, poor fit]

**Q.** With `O=C(CN(c1ccc(Cl)cc1)S(=O)(=O)c1ccc(Cl)c([N+](=O)[O-])c1)NCCc1ccccc1` as the molecule, how does the Potency read?
**A.** inconclusive: 25.1 µM [inhibitor, single point]

**Q.** Which “activity change, negative = inhibition” value does the source give for `Cc1cc(NC(=O)CN2C(=O)NC3(CCCCC3)C2=O)ccc1N1CCCC1` here?
**A.** inactive: -7.91%

**Q.** Which “activity change, negative = inhibition” value does the source give for `Cc1ccc(NC2=NC(c3ccc(C)cc3)n3c(nc(C)cc3=O)N2)cc1` (stereo not drawn) here?
**A.** inactive: -29.5%

**Q.** With `Cc1ccc(-n2nc(-c3ccccc3)c3cnc4cc5c(cc4c32)OCO5)cc1C` as the molecule, how does the “activity change, negative = inhibition” value read?
**A.** inactive: -4.86% [at 46.1 µM]

**Q.** Which Potency does the source give for `OCCn1c(SCCOc2ccccc2)nc2ccccc21` here?
**A.** inconclusive: 1.83 µM [inhibitor, partial curve, poor fit]

**Q.** Which “activity change, negative = inhibition” value does the source give for `Cc1ccccc1C(=O)NCCNC(=O)c1ccco1` here?
**A.** inactive: 4.59% [at 46.1 µM]

**Q.** For `CCN1C(=O)NC(=O)/C(=C/c2cc(C)n(-c3sc(C)c(C)c3C#N)c2C)C1=O`, which Potency is on record?
**A.** inconclusive: 2.82 µM [activator, partial curve]

**Q.** Which Potency does the source give for `COc1cc2ccccc2cc1C(=O)N(CCN(C)C)c1nc2c(OC)ccc(OC)c2s1` here?
**A.** inconclusive: 5.01 µM [inhibitor, full curve, poor fit]

**Q.** For `COC(=O)c1ccc(C2CC(=O)NC3=C2C(=O)CCC3)cc1` (stereo not drawn), which “activity change, negative = inhibition” value is on record?
**A.** inactive: 3.97%

**Q.** For `CCOC(=O)C1=C(C)NC(=O)NC1c1ccc(OCC(=O)OC)c(OC)c1` (stereo not drawn), which “activity change, negative = inhibition” value is on record?
**A.** inactive: -11.4%

**Q.** Which Potency does the source give for `O=C1/C(=C/c2cccnc2)SC(=NCc2ccccc2)N1Cc1ccccc1` here?
**A.** inconclusive: 10 µM [inhibitor, partial curve, poor fit]

**Q.** With `COc1ccc(C(C)=O)cc1COC(=O)c1ccc2c(c1)OCO2` as the molecule, how does the Potency read?
**A.** inconclusive: 0.562 µM [inhibitor, full curve, poor fit]

**Q.** Which Potency does the source give for `N#Cc1ccccc1Cn1cc(/C=N/Nc2ccc([N+](=O)[O-])cn2)c2ccccc21` here?
**A.** inconclusive: 7.94 µM [inhibitor, partial curve, poor fit]

**Q.** With `Cc1csc(SCC(=O)Nc2sccc2C(N)=O)n1` as the molecule, how does the Potency read?
**A.** inconclusive: 1.26 µM [activator, single point]

**Q.** With `CCn1c(SCC(=O)N(C(C)C)C(C)C)nnc1-c1cc2ccccc2cc1O` as the molecule, how does the “activity change, negative = inhibition” value read?
**A.** inactive: -5.24%

**Q.** For `CC(C)CSC1=NSC2=NC(=O)/C(=C\c3coc4ccccc4c3=O)C(=N)N12`, which Potency is on record?
**A.** inconclusive: 10 µM [activator, partial curve, poor fit]

**Q.** With `CCCCSc1nnc([C@H](C)NC(=O)OC(C)(C)C)o1` as the molecule, how does the Potency read?
**A.** inconclusive: 1.64 µM [inhibitor, partial curve, poor fit]

**Q.** With `Cc1cccc(C(C)C)c1NC(=O)c1ccc2c(c1)CCN2S(C)(=O)=O` as the molecule, how does the “activity change, negative = inhibition” value read?
**A.** inactive: 10.9% [at 46.1 µM]

**Q.** Which Potency does the source give for `CC1=CSC2=NC(=O)/C(=C/c3cccc(OC(=O)c4ccco4)c3)C(=N)N12` here?
**A.** inconclusive: 20.6 µM [activator, single point]

**Q.** Which Potency does the source give for `COc1cc(NC(=O)c2cc([N+](=O)[O-])ccc2N2CCOCC2)ccc1NC(=O)c1ccco1` here?
**A.** inconclusive: 14.1 µM [inhibitor, single point]

**Q.** Which Potency does the source give for `N#C/C(=C\c1c(Cl)cccc1Cl)c1nc2ccccc2[nH]1` here?
**A.** inconclusive: 35.5 µM [inhibitor, single point]

**Q.** With `COC(=O)c1ccc(Oc2c(F)c(F)nc(N3CCOCC3)c2F)cc1` as the molecule, how does the Potency read?
**A.** inconclusive: 15.8 µM [inhibitor, single point]

**Q.** With `Cc1ccc(C)c(N2CCN(C(=O)c3ccc(Cl)c(NC4=NC5CS(=O)(=O)CC5S4)c3)CC2)c1` (stereo not drawn) as the molecule, how does the Potency read?
**A.** inconclusive: 7.94 µM [inhibitor, partial curve, poor fit]

**Q.** With `Cc1cccc(Nc2nnc(-c3ccc(C)c(S(=O)(=O)N4CCN(C)CC4)c3)c3ccccc23)c1` as the molecule, how does the Potency read?
**A.** inconclusive: 15.8 µM [inhibitor, single point]

**Q.** For `CC(=O)Nc1ccc(S(=O)(=O)N2CCN(c3cc(C(F)(F)F)ccn3)CC2)cc1`, which “activity change, negative = inhibition” value is on record?
**A.** inactive: -28.2% [at 46.1 µM]

**Q.** With `COc1ccc(C(=O)n2nc(-c3ccc(C)cc3)nc2N)cc1OC` as the molecule, how does the Potency read?
**A.** inconclusive: 35.5 µM [inhibitor, single point]

**Q.** Which Potency does the source give for `Cc1[nH]c2ccccc2c1NC(=O)CN1CCN(c2cccc(C(F)(F)F)c2)CC1` here?
**A.** inconclusive: 25.1 µM [inhibitor, single point]

**Q.** For `COc1ccsc1C(=O)NCCN1CCOCC1`, which “activity change, negative = inhibition” value is on record?
**A.** inactive: -1.01% [at 46.1 µM]

**Q.** With `CC(C)c1ccccc1NC(=O)COC(=O)c1cc([N+](=O)[O-])ccc1N1CCOCC1` as the molecule, how does the Potency read?
**A.** inconclusive: 35.5 µM [inhibitor, single point]

**Q.** With `O=C(CNC(=O)c1ccc(Cl)cc1)NNc1c(F)c(F)cc(F)c1F` as the molecule, how does the “activity change, negative = inhibition” value read?
**A.** inactive: -9.59% [at 46.1 µM]

**Q.** Which Potency does the source give for `COc1cccc(OC)c1OCCCSc1nc(C)cc(=O)[nH]1` here?
**A.** inconclusive: 23.1 µM [inhibitor, single point]

**Q.** With `O=C(/C=C/c1ccc(S(=O)(=O)N2CCOCC2)cc1)Nc1cc(F)ccc1F` as the molecule, how does the Potency read?
**A.** inconclusive: 3.55 µM [activator, partial curve, poor fit]

**Q.** With `COc1ccc(C)cc1N1C(=N)/C(=C2/Nc3ccccc3S2)C(c2ccccc2)C1=O` (stereo not drawn) as the molecule, how does the Potency read?
**A.** inconclusive: 14.1 µM [inhibitor, partial curve, poor fit]

**Q.** With `CCN1CCN(CCC2Oc3cc([N+](=O)[O-])ccc3NC2=O)CC1` (stereo not drawn) as the molecule, how does the Potency read?
**A.** inconclusive: 31.6 µM [activator, single point]

**Q.** Which Potency does the source give for `NC(=S)N/N=C/c1c(O)c(Br)cc2oc3c(c12)CCCC3` here?
**A.** inconclusive: 11.2 µM [inhibitor, partial curve, poor fit]

**Q.** Which Potency does the source give for `O=C(c1ccc(C#CC2(O)CCCCC2)cc1)N1CCOCC1` here?
**A.** inconclusive: 5.8 µM [activator, partial curve]

**Q.** With `CCOC(=O)c1c(CN2CCOCC2)n(-c2ccccc2)c2cc(Br)c(OC)cc12` as the molecule, how does the Potency read?
**A.** inconclusive: 9.2 µM [inhibitor, partial curve, poor fit]

**Q.** With `COc1ccc(NS(=O)(=O)c2c(C)cc(C)cc2C)cc1` as the molecule, how does the Potency read?
**A.** inconclusive: 7.3 µM [inhibitor, partial curve]

**Q.** Which “activity change, negative = inhibition” value does the source give for `COc1cc(CC(NC(C)=O)C(=O)NC2CCN(S(=O)(=O)c3ccc(NC(C)=O)cc3)CC2)cc(OC)c1` (stereo not drawn) here?
**A.** inactive: 11% [at 46.1 µM]

**Q.** For `Cc1cc(NCCCO)n2nc(-c3cccs3)cc2n1`, which Potency is on record?
**A.** inconclusive: 0.316 µM [activator, partial curve, poor fit]

**Q.** For `COc1cc(-c2nc(-c3ccc(NC(=O)c4ccc5c(c4)OCO5)cc3)no2)cc(OC)c1OC`, which Potency is on record?
**A.** inconclusive: 10.3 µM [inhibitor, partial curve, poor fit]

**Q.** With `FC(F)Oc1ccc(-n2cc(-c3ccccc3)[n+]3c2CCCCC3)cc1` as the molecule, how does the Potency read?
**A.** inconclusive: 12.6 µM [inhibitor, single point]

**Q.** With `CCN(CC)c1ccc(C=C2C(=O)N(C)C(=S)N(C)C2=O)o1` as the molecule, how does the Potency read?
**A.** inconclusive: 3.16 µM [activator, full curve, poor fit]

**Q.** For `O=C1OC(OC(=O)c2ccccc2Br)C(N2CCOCC2)=C1Cl` (stereo not drawn), which Potency is on record?
**A.** inconclusive: 8.91 µM [activator, partial curve, poor fit]

**Q.** For `CCN(CC(=O)Nc1ccc2c(c1)OCCO2)C(=O)/C=C/c1ccc(OC)c(OC)c1`, which “activity change, negative = inhibition” value is on record?
**A.** inactive: -0.181%

**Q.** With `CC(C)(C)C1c2[nH]c3ccccc3c2CCN1CCCn1cccn1` (stereo not drawn) as the molecule, how does the Potency read?
**A.** inconclusive: 11.2 µM [inhibitor, partial curve, poor fit]

**Q.** With `CC1CCCc2sc3nc(N4CCN(CCO)CC4)n4ncnc4c3c21` (stereo not drawn) as the molecule, how does the Potency read?
**A.** inconclusive: 29.1 µM [inhibitor, single point]

**Q.** Which Potency does the source give for `Cc1ccc(NC(=O)c2ccc(S(=O)(=O)NCC3CCCO3)cc2)cc1C` (stereo not drawn) here?
**A.** inconclusive: 35.5 µM [activator, single point]

**Q.** With `O=C(Cc1ccc(Br)cc1)NC1CCCCC1` as the molecule, how does the “activity change, negative = inhibition” value read?
**A.** inactive: 14%

**Q.** With `Cc1ccc(OCCCC(=O)N(C)CC(=O)Nc2ccccc2Cl)cc1` as the molecule, how does the “activity change, negative = inhibition” value read?
**A.** inactive: 2.5%

**Q.** With `CC(C)(CO)NCC(O)COc1ccc2c(c1)CCC2` (stereo not drawn) as the molecule, how does the “activity change, negative = inhibition” value read?
**A.** inactive: -5.03%

**Q.** Which Potency does the source give for `CC(C)[C@H](NC(=O)OCc1ccccc1)C(=O)OCC(=O)N1CCCCC1` here?
**A.** inconclusive: 3.16 µM [activator, single point]

**Q.** For `CCn1c(SCc2nc(-c3ccccc3)no2)nnc1-c1cccs1`, which “activity change, negative = inhibition” value is on record?
**A.** inactive: -8.86%

**Q.** With `COc1ccc(-c2noc(CN(C)S(=O)(=O)c3ccc(C)cc3)n2)cc1` as the molecule, how does the Potency read?
**A.** inconclusive: 32.6 µM [inhibitor, single point]

**Q.** Which Potency does the source give for `COc1cccc(NC(=S)N(Cc2ccccn2)Cc2ccccc2Cl)c1` here?
**A.** inconclusive: 31.6 µM [inhibitor, partial curve, poor fit]
